Results reported in PMC3349659.
No constants are given. Whether binding was seen depends on the method and setting. Binding seen in cells or lysates may run through a third protein. Some entries that bind do so weakly or less than the wild type.

Protein sequences, listed by entry. Tags and fused reporters are not part of them.
UniProt O35929: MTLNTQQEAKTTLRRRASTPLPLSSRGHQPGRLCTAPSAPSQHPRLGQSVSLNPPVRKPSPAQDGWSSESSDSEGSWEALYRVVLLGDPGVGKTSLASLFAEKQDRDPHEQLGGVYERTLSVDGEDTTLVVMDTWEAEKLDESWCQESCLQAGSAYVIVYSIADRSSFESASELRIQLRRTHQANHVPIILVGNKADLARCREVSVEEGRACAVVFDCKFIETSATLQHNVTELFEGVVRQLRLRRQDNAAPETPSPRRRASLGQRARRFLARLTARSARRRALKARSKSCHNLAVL

Biological target: CFP-Rem (mouse) (UniProt O35929)
Experiment: co-IP; co-transfected HEK 293 cells, lysate in 50 mmol/L Tris-HCl, 150 mmol/L NaCl, 1% NP-40; precipitated with anti-Rem, anti-Gem, anti-Rem2 or anti-Rad antibody and protein G beads; blot with anti-GFP

Row | binding | Substance
1 | binds | YFP-β2a (from UniProt Q8VGC3-2 1-604)
2 | no binding | YFP-β_(2aTM) (from UniProt Q8VGC3-2 1-604)
